Where “and” joins values, the source holds several entries; their conditions need not be identical. Equal entries are not always repeated. ± gives the standard deviation of the averaged measurements. Over roughly 1,600 compounds, “normalized growth (OD600, IQM-normalized) in LPM” has its median near 1; the lowest 2% begin near 0.014. Some of the results follow.

This assay deals with Salmonella enterica serovar Typhimurium SL1344. The experiment in a line: normalized growth (OD600, IQM-normalized) in LPM (fraction of plate interquartile mean); higher = more bacterial growth (less inhibition). The conditions noted are these: LPM pH 5.8; 10 µM; 16 h.
In turn, `CC(N)C12CC3CC(CC(C3)C1)C2` (stereo not drawn) gave a normalized growth of 1.35 ± 0.31.

`Nc1cc(-c2ccncc2)c[nH]c1=O` returned a normalized growth of 0.687 ± 0.051.

Turning to `CN(CCOc1ccc(CC2SC(=O)NC2=O)cc1)c1ccccn1` (stereo not drawn), the normalized growth was 0.881 ± 0.024. Consider `CN(C)CC[C@@H](c1ccc(Cl)cc1)c1ccccn1`, for which the normalized growth is 1.05 and 1.01. In the case of `NC(N)=O`, the normalized growth is 0.954 ± 0.11.

`Cn1c([N+](=O)[O-])cnc1COC(N)=O` showed a normalized growth of 0.794 ± 0.08. Regarding `CN(C)[C@@H]1C(O)=C(C(N)=O)C(=O)[C@@]2(O)C(O)=C3C(=O)c4c(O)ccc(Cl)c4[C@@H](O)[C@H]3C[C@@H]12`, the normalized growth is 0.00865 ± 0.00039. Next, `OC[C@H]1O[C@@H](O[C@@H]2[C@@H](CO)OC(O)(CO)[C@H]2O)[C@H](O)[C@@H](O)[C@H]1O` (mixture of isomers): 1.05 ± 0.039; `CC(Oc1ccccc1)C(=O)N[C@@H]1C(=O)N2[C@@H]1SC(C)(C)[C@@H]2C(=O)O` (stereo partly drawn): 1.13 ± 0.082.

`COc1ccc(-c2cc(C(F)F)nn2-c2ccc(S(N)(=O)=O)cc2)cc1F` showed a normalized growth of 1.01 ± 0.035. With `N[C@@H](C(=O)N[C@@H]1C(=O)N2C(C(=O)O)=C(Cl)CS[C@H]12)c1ccccc1` the figure was 0.999 ± 0.021; with `COc1ccc(C(=O)NCc2ccc(OCCN(C)C)cc2)cc1OC`, 1.01 ± 0.038; with `Cn1nnnc1SCC1=C(C(=O)O)N2C(=O)[C@@H](NC(=O)[C@H](OC=O)c3ccccc3)[C@H]2SC1`, 1.17 ± 0.12.

Regarding `CCOC(=O)[C@H](CCc1ccccc1)N[C@@H](C)C(=O)N1CCC[C@H]1C(=O)O`, the normalized growth was 0.901 ± 0.13. Next, `CO/N=C(\C(=O)N[C@@H]1C(=O)N2C(C(=O)O)=C(C[N+]3(C)CCCC3)CS[C@H]12)c1csc(N)n1`: 0.0232 ± 0.0056. The compound `CCCCC(=O)O[C@]1(C(=O)CO)CC[C@H]2[C@@H]3CCC4=CC(=O)CC[C@]4(C)[C@H]3[C@@H](O)C[C@@]21C` gave a normalized growth of 1.09 ± 0.044. Next, `CCc1cccc2c3c([nH]c12)C(CC)(CC(=O)O)OCC3` (stereo not drawn): 1.1 ± 0.028; `Cc1noc(NS(=O)(=O)c2ccc(N)cc2)c1C`: 1.06 ± 0.073. `CC1=C(CC(=O)O)c2cc(F)ccc2/C1=C\c1ccc([S+](C)[O-])cc1` (stereo not drawn) had a normalized growth of 1.06 ± 0.016. The compound `CC(Oc1c(Cl)cccc1Cl)C1=NCCN1` (stereo not drawn) showed a normalized growth of 0.865 ± 0.015. Regarding `CC(C)COC(=O)c1ccc(N)cc1`, the normalized growth was 0.871 ± 0.03. As to `Cc1ccccc1N1C(=O)c2cc(S(N)(=O)=O)c(Cl)cc2NC1C` (stereo not drawn), the normalized growth worked out at 1.15 ± 0.071.

Compound `Cc1cc(-n2c(=O)[nH]c(=O)n(C)c2=O)ccc1Oc1ccc(SC(F)(F)F)cc1` came in with a normalized growth of 0.973 ± 0.019. `OCCOCCN1CCN(C(c2ccccc2)c2ccc(Cl)cc2)CC1` (stereo not drawn) gave a normalized growth of 0.986 ± 0.014. Next, `O=S(=O)(O)CCCS(=O)(=O)O`: 1.02 ± 0.042; `CC(=O)Nc1ccc(O)cc1`: 0.903 ± 0.072; `CCCCC(CC)CN=C(N)N=C(N)NCCCCCCNC(N)=NC(N)=NCC(CC)CCCC` (stereo not drawn): 0.929 ± 0.026. The compound `COc1ccc2[nH]c([S+]([O-])Cc3ncc(C)c(OC)c3C)nc2c1` (stereo not drawn) came in with a normalized growth of 1.13 ± 0.048. `CC(=O)OCC1=C(C(=O)O)N2C(=O)[C@@H](NC(=O)CSc3ccncc3)[C@H]2SC1` came in with a normalized growth of 0.957 ± 0.058. Turning to `O=C1OC2(c3ccc(O)cc3Oc3cc(O)ccc32)c2ccccc21`, the normalized growth turned out to be 0.99 ± 0.014.

Compound `CN(C)[C@@H]1C(O)=C(C(N)=O)C(=O)[C@@]2(O)C(O)=C3C(=O)c4c(O)ccc(Cl)c4[C@@](C)(O)[C@H]3C[C@@H]12` came in with a normalized growth of 0.0113 ± 0.00051. In the case of `CC(C)[C@H](NC(=O)[C@H](CC(=O)O)NC(=O)[C@H](CCCCN)NC(=O)[C@@H](N)CCCN=C(N)N)C(=O)N[C@@H](Cc1ccc(O)cc1)C(=O)O`, the normalized growth amounted to 0.991 ± 0.011. For the compound `C[C@]12CC[C@@H]3c4ccc(O)cc4CC[C@H]3[C@@H]1CCC2=O`, the normalized growth was 1.19 ± 0.15.

As to `CCOC(=O)C1=C[C@]2(CC)CCCN3CCc4c(n1c1ccccc41)[C@@H]32`, the normalized growth worked out at 1.06 ± 0.037. `O=NN(CCCl)C(=O)NC1CCCCC1` registered a normalized growth of 0.914 ± 0.045. With `COc1ccccc1O` the figure was 0.951 ± 0.037; with `Cc1cccc(CN2CCN(C(c3ccccc3)c3ccc(Cl)cc3)CC2)c1` (stereo not drawn), 1.04 ± 0.068; with `COc1cnc(NS(=O)(=O)c2ccc(N)cc2)nc1`, 1.21 ± 0.028. Regarding `O=C(O)CCC(=O)Nc1ccc(S(=O)(=O)Nc2nccs2)cc1`, the normalized growth worked out at 0.958 ± 0.029.

The compound `COc1ccc(-c2cc(=O)c3c(O)cc(O[C@@H]4O[C@H](CO[C@@H]5O[C@@H](C)[C@H](O)[C@@H](O)[C@H]5O)[C@@H](O)[C@H](O)[C@H]4O)cc3o2)cc1O` yielded a normalized growth of 1.06 ± 0.032.

In turn, `COc1ccc(C(=O)c2ccc(C)cc2)c(O)c1` had a normalized growth of 1.01 ± 0.024.

On to `NC(=O)NC(=O)Cc1ccccc1`, for which the normalized growth is 0.876 ± 0.017. With `CC1(C)[C@H]2CC[C@]1(CS(=O)(=O)O)C(=O)C2=Cc1ccc(C=C2C(=O)[C@@]3(CS(=O)(=O)O)CC[C@@H]2C3(C)C)cc1`, the normalized growth worked out at 0.989 ± 0.073. `CN1[C@@H](CC(=O)c2ccccc2)CCC[C@H]1C[C@H](O)c1ccccc1` yielded a normalized growth of 1.13 ± 0.05.

For the compound `c1ccc2[nH]c(-c3cscn3)nc2c1`, the normalized growth worked out at 1 ± 0.025. Next, `OC[C@@H](O)[C@@H](O[C@@H]1O[C@H](CO)[C@H](O)[C@H](O)[C@H]1O)[C@H](O)[C@@H](O)CO`: 0.98 and 0.904; `CCN1CC(CCN2CCOCC2)C(c2ccccc2)(c2ccccc2)C1=O` (stereo not drawn): 1.05 ± 0.087; `CC(=O)Nc1ccc(CC(=O)O)cc1`: 1.03 ± 0.045.

Consider `Cc1nc2n(c(=O)c1CCN1CCC(c3noc4cc(F)ccc34)CC1)CCCC2`, for which the normalized growth is 1.11 ± 0.026. As to `CNCCC(Oc1ccc(C(F)(F)F)cc1)c1ccccc1` (stereo not drawn), the normalized growth stood at 0.857 ± 0.024. With `CC(=O)OCC(=O)[C@@]12N=C(C)O[C@@H]1C[C@H]1[C@@H]3CCC4=CC(=O)C=C[C@]4(C)[C@H]3[C@@H](O)C[C@@]12C` the figure was 1.06 ± 0.023.

In turn, `CC(C)(C)NC[C@H](O)c1ccc(O)c(CO)c1` registered a normalized growth of 0.993 ± 0.055. In turn, `CC(C)Nc1ncccn1` had a normalized growth of 1.05 ± 0.019.

Source of the values: the supplement of paper PMC6331611.
